Experimental data taken from US5274141A, “Designed quinone- and hydroquinone-containing cyclic enediyneols and enediyneones having DNA cleaving and cytotoxic properties” (The Scripps Research Institute, priority 1992, dated 1993).
The name of at least one read-out is uncertain. For part of these data: For at least one compound, name, drawing or mass did not settle the structure.

Legend:
Molt-4 (T-Cell Leukemia) = assay: Sulforhodamine B cytotoxicity assay, Molt-4; type: cell-based, human; conditions: footnote, Molt4 cells; 4320 min; read-out: concentration at which Molt4 cells were susceptible
Text: (§1) In addition to the DNA cleavage screening already discussed, several of the before-described compounds were screened against a panel of twelve cancerous cell lines as target cells and four "normal" cell preparations. This screening utilized a sulforhodamine B cytotoxicity assay as discussed below.
(§2) SULFORHODAMINE B CYTOTOXICITY ASSAY
(§3) 1. Preparation of target cells in 96-well plates
(§4) 2. Preparation of sample drugs and toxic control
(§5) 3. Addition of Sample Drugs, Compounds and Controls to 96-well Plates
(§6) f. Incubate (37° C., 5-10 percent CO2 in humidified incubator) plates for a total of 72 hours. Check plates at 24 hour intervals microscopically for signs of cytotoxicity.
(§7) IC50 values; i.e., the concentration of Compound required to kill one-half of the treated cells, where then calculated.
The cell lines assayed are listed below along with their respective sources: […]

Cancer Cells = type: cell-based, human or mouse
Text: as §1, §2, §3, §4, §5, §6, §7
The cell lines assayed are listed below along with their respective sources:
Separate control studies were also carried out using the following well known anticancer drugs with the following IC50 values for NHDF and cancer cells.

Compound | IC50 (Molt-4 (T-Cell Leukemia)) [pM] | IC50 (Cancer Cells; footnote, all cells other than Molt4, 4320 min, read-out: concentration at which all other cells were susceptible) [pM] | Range of Average IC50 Values, Cancer Cells (Cancer Cells; control anticancer drugs, cancer cells)
Calicheamicin [reference compound] | 1 | ≥ 3900 | 
COC1=C(C(=O)O)[C@H](C)[C@@]23O[C@]24c2cc(O)c5c(c2N[C@H]3C#C/C=C\C#C[C@H]14)C(=O)c1c(O)ccc(O)c1C5=O [Dynemicin A, reference compound] |  |  | 1.6 × 10^-8 -9.8 × 10^-10
